Results taken from the supplement of paper PMC12819154, “High-throughput peptide-centric local stability assay extends protein–ligand identification to membrane proteins, tissues and bacteria” (Nature Structural & Molecular Biology, 2025).
Some of the results follow. Small differences around the control level are noise.

Amino acid sequences for entries named in this document (tags omitted). A change or cut given only in a name is not applied to a line headed by its entry.
UniProt Q9D187: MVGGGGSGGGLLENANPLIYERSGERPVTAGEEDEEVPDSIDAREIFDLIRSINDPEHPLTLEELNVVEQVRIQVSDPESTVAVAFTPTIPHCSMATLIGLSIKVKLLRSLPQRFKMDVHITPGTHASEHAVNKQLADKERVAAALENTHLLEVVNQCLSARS
UniProt Q9D1Q6: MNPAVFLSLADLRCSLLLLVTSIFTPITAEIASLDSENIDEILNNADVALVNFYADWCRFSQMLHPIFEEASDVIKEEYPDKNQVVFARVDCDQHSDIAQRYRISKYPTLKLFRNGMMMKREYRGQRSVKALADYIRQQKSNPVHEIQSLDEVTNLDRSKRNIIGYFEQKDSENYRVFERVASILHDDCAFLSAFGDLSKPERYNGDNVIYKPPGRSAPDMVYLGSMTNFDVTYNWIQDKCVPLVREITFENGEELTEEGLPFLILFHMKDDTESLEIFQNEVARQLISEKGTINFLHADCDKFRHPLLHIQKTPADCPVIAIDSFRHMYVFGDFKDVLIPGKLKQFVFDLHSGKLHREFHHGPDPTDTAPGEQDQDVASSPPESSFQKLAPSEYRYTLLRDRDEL
UniProt Q9D1I5: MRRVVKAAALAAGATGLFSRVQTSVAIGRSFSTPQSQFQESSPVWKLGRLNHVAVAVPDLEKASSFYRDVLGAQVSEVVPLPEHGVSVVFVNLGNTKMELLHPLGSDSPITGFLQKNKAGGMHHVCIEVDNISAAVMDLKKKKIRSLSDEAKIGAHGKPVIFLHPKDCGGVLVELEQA
UniProt Q9D2M8: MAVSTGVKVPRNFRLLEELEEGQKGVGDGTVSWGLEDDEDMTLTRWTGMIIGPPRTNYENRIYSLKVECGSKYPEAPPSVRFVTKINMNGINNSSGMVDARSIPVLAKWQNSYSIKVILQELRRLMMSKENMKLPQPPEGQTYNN
UniProt Q9D6S7: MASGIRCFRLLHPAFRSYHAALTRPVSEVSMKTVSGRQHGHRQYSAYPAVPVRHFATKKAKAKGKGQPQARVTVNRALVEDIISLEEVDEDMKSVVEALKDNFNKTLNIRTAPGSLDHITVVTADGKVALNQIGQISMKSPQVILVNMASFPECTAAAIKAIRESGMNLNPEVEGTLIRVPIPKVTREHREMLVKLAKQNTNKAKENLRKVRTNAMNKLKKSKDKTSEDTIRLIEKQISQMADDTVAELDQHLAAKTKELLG
UniProt Q9D1D4: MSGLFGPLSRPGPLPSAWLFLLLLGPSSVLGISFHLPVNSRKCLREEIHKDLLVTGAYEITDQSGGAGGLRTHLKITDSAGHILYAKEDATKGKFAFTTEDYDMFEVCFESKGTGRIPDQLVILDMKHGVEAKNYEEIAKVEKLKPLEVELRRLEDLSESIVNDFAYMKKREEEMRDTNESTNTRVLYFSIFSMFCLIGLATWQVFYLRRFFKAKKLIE
UniProt Q9D6H5: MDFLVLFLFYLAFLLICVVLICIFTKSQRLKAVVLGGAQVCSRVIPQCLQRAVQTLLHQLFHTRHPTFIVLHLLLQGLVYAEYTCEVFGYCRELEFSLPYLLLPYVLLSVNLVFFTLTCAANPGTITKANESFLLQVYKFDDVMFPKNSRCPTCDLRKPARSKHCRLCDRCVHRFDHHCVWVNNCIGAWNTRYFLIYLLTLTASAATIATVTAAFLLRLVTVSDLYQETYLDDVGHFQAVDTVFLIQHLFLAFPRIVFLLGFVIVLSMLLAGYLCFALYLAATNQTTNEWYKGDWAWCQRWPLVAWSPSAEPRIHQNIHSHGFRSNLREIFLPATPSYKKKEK
UniProt Q9D198: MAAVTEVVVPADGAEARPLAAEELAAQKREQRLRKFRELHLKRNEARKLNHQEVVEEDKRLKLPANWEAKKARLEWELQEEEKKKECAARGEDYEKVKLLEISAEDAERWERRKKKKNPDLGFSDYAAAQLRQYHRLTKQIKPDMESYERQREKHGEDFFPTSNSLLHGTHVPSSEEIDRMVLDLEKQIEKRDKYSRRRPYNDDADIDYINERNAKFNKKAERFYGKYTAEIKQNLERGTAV
UniProt Q9D4H9: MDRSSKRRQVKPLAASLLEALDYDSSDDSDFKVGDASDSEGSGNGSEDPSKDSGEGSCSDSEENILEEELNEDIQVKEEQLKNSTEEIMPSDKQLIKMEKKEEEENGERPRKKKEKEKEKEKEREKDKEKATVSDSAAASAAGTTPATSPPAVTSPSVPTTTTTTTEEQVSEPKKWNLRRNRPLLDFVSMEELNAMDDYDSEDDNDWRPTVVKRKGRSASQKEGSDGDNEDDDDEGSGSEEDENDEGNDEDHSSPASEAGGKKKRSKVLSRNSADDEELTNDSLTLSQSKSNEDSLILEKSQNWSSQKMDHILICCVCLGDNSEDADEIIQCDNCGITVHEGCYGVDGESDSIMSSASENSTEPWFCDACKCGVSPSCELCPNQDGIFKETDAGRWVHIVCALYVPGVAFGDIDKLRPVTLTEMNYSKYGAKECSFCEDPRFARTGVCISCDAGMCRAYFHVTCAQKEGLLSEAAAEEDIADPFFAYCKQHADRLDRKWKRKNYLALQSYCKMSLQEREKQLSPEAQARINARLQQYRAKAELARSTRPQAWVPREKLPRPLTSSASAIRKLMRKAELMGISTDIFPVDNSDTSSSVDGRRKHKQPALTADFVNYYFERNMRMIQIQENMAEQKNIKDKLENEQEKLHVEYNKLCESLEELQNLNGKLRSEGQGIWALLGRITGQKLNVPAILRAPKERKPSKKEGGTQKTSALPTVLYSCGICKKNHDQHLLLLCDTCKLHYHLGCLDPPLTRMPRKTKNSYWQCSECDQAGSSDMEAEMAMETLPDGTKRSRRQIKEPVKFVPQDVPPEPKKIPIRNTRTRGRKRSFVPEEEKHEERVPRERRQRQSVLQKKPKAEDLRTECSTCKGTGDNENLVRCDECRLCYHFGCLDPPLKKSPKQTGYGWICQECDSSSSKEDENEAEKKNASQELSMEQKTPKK
UniProt Q9D937: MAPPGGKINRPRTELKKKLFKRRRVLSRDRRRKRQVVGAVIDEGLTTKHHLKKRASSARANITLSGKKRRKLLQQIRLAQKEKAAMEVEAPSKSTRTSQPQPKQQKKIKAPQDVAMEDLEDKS
UniProt Q9D136: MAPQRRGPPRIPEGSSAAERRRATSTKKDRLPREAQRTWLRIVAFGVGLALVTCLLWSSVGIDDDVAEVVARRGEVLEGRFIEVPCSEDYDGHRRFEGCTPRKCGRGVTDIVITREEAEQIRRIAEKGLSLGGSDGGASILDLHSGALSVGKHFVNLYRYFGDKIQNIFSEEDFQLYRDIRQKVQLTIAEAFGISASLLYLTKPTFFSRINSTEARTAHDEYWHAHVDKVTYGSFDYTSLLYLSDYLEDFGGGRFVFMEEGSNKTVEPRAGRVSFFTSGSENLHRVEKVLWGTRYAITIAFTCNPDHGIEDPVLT

Compound: CN[C@@H]1C[C@H]2O[C@@](C)([C@@H]1OC)n1c3ccccc3c3c4c(c5c6ccccc6n2c5c31)C(=O)NC4 [staurosporine]
Experiment: log2 fold change of tryptic peptide abundance, ligand vs vehicle (limited proteolysis) (log2 ratio); higher = more trypsin-susceptible (destabilized)
Details: ligand concentration: 20 uM; sample: mouse liver crude lysate; replicate design: treated separately

Target	log2 fold change
UniProt Q9D187 (peptide sequence: MDVHITPGTHASEHAVNK, peptide start residue: 117)	-0.32
UniProt Q9D1Q6 (peptide sequence: GTINFLHADCDKFR, peptide start residue: 292)	-0.987
UniProt Q9D1I5 (peptide sequence: IRSLSDEAK, peptide start residue: 144)	0.401
UniProt Q9D2M8 (peptide sequence: AVSTGVKVPR, peptide start residue: 2)	0.108
UniProt Q9D6S7 (peptide sequence: VALNQIGQISMK, peptide start residue: 128)	0.114
UniProt Q9D1D4 (peptide sequence: IPDQLVILDMKHGVEAK, peptide start residue: 117)	-0.356
UniProt Q9D6H5 (peptide sequence: EIFLPATPSYK, peptide start residue: 329)	0.0628
UniProt Q9D198 (peptide sequence: LEWELQEEEKKK, peptide start residue: 74)	-0.2
UniProt Q9D4H9 (peptide sequence: NSTEEIMPSDK, peptide start residue: 83)	-0.151
UniProt Q9D937 (peptide sequence: AAMEVEAPSK, peptide start residue: 84)	-0.143
UniProt Q9D136 (peptide sequence: IPEGSSAAER, peptide start residue: 11)	0.114

Some of the entries so far, as a markdown table.

| Target | log2 fold change |
| --- | --- |
| UniProt Q9D1Q6 (peptide sequence: GTINFLHADCDKFR, peptide start residue: 292) | -0.987 |
| UniProt Q9D4H9 (peptide sequence: NSTEEIMPSDK, peptide start residue: 83) | -0.151 |
